What follows is the remainder of the data, with few or none of the targets with a hit. The data scatter; read single values as rough. The entries are a selection whose mix differs from that of the whole data set.

Sequences of proteins named here, by UniProt entry; tags and fusion partners are left off. A change or cut given only in a name is not applied to a line headed by its entry.
UniProt P41252: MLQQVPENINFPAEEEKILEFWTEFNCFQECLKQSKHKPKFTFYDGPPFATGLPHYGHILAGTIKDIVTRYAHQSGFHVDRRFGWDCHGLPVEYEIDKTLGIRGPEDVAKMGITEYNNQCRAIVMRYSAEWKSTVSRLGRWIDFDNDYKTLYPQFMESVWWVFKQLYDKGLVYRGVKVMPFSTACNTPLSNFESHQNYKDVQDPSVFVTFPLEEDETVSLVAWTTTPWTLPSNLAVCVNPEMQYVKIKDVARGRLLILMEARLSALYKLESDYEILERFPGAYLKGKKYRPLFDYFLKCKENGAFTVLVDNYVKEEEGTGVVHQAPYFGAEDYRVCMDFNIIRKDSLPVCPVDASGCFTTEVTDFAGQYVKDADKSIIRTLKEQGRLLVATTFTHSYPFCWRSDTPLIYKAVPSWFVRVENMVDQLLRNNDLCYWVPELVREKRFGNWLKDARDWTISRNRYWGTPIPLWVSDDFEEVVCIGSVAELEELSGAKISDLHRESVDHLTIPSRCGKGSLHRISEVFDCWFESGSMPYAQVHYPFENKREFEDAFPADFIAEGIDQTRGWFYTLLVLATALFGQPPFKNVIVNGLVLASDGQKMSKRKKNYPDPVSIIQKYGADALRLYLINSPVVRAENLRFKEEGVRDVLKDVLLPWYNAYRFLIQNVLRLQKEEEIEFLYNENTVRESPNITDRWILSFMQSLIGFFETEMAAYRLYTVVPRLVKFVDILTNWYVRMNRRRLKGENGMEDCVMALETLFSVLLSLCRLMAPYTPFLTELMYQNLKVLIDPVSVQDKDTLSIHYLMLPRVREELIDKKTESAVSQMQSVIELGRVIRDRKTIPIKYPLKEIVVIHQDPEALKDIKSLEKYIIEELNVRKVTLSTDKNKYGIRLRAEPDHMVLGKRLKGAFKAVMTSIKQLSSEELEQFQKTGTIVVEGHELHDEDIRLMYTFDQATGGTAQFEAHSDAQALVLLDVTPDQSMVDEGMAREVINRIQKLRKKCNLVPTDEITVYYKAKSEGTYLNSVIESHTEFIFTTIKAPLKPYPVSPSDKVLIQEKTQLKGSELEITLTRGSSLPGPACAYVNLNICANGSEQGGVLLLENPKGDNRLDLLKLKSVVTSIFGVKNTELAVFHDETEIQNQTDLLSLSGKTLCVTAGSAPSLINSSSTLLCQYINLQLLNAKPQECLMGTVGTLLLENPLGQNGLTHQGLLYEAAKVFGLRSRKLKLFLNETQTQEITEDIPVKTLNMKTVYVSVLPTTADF
UniProt P42224: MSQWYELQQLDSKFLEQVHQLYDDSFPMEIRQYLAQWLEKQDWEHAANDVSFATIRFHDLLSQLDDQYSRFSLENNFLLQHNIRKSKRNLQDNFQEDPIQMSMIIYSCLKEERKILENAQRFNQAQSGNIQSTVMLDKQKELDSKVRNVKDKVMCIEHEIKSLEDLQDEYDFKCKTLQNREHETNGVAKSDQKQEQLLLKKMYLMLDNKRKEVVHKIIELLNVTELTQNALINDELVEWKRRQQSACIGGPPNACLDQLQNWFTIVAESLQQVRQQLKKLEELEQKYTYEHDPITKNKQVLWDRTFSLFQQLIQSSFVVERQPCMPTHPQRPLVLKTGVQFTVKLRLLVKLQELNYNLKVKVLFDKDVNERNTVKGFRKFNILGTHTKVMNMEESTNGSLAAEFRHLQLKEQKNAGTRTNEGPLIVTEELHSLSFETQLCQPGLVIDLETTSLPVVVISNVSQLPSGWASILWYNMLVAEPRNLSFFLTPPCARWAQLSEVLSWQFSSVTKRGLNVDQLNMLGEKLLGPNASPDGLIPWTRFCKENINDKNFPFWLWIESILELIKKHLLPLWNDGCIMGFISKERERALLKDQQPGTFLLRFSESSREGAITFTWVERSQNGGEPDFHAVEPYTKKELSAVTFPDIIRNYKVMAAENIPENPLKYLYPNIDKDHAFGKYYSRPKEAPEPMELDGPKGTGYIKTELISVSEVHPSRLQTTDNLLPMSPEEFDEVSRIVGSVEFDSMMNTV
UniProt P33981: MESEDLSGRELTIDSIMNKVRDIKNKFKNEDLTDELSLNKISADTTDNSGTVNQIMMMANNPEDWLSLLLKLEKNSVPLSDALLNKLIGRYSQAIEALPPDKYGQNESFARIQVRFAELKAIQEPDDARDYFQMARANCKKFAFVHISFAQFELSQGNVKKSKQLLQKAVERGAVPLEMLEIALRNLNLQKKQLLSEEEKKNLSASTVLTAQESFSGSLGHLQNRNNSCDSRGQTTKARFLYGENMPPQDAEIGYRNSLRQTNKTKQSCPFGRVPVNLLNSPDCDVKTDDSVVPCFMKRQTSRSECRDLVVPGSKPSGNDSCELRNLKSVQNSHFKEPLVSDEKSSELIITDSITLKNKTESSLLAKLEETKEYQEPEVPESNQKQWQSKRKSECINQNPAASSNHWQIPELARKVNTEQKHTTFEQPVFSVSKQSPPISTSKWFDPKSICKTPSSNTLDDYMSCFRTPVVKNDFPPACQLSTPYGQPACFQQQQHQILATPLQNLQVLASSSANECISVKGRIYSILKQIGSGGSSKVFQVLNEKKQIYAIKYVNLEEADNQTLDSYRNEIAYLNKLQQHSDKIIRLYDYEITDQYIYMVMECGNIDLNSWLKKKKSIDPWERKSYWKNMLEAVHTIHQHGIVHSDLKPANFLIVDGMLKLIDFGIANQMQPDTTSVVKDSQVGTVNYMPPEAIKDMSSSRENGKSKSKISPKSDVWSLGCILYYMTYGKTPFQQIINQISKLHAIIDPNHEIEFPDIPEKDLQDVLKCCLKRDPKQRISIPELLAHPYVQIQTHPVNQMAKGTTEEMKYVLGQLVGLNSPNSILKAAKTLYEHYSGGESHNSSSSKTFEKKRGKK
UniProt P40424: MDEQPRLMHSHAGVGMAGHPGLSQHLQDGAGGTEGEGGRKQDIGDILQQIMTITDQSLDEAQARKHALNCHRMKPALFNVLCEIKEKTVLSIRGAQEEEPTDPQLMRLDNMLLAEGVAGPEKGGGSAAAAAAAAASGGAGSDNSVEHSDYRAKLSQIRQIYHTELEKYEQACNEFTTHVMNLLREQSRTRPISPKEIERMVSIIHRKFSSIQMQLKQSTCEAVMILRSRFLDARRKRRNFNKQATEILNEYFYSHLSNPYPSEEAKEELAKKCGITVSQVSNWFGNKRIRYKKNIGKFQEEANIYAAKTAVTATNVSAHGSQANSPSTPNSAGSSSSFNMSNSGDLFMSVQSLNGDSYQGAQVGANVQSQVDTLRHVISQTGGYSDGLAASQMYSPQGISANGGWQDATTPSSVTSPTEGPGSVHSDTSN
UniProt P30154, whole entry: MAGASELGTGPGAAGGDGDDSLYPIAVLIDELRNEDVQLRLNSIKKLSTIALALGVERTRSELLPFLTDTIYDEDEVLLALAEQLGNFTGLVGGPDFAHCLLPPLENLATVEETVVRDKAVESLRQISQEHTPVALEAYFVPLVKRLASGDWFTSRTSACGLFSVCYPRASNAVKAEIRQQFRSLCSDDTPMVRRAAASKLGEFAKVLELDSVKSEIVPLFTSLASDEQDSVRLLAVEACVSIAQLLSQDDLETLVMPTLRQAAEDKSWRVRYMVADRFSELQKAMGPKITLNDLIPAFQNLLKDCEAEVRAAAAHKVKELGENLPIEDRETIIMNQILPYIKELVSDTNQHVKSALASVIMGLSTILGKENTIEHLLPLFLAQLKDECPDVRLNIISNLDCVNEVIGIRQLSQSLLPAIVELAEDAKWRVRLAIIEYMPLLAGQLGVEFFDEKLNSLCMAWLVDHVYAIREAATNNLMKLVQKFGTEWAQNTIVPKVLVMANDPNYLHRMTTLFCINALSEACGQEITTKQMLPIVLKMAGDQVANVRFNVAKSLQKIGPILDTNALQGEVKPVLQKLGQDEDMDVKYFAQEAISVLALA
UniProt P36551: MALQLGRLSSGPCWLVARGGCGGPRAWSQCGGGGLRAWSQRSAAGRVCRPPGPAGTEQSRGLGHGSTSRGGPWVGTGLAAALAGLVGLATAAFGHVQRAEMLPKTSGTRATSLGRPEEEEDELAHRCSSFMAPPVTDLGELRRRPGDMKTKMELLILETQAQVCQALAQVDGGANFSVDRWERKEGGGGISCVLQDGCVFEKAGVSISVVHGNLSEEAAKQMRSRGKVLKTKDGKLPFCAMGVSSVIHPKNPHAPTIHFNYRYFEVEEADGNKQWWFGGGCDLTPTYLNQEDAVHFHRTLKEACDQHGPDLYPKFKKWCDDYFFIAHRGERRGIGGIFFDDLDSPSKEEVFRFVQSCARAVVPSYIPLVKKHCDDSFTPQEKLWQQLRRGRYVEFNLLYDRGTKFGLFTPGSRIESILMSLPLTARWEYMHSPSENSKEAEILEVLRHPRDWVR
UniProt P33992: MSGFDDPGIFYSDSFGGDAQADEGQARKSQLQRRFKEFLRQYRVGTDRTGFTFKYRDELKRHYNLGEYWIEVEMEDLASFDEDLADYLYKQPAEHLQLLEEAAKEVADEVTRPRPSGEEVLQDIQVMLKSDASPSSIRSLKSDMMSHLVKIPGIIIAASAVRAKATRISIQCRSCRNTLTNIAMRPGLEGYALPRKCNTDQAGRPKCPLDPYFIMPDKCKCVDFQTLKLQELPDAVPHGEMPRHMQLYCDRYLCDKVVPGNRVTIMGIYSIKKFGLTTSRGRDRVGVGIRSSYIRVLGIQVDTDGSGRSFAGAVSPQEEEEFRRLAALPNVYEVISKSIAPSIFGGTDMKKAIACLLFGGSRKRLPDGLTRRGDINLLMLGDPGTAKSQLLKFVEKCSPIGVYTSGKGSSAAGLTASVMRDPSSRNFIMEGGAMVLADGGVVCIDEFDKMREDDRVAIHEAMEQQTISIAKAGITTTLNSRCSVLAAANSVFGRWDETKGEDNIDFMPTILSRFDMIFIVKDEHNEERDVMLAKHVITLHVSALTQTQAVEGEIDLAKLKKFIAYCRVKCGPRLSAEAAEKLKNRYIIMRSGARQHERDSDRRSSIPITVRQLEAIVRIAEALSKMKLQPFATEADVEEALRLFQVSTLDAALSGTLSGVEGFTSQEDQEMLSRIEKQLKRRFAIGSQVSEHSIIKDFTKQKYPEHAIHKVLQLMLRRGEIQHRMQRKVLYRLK
UniProt P35611: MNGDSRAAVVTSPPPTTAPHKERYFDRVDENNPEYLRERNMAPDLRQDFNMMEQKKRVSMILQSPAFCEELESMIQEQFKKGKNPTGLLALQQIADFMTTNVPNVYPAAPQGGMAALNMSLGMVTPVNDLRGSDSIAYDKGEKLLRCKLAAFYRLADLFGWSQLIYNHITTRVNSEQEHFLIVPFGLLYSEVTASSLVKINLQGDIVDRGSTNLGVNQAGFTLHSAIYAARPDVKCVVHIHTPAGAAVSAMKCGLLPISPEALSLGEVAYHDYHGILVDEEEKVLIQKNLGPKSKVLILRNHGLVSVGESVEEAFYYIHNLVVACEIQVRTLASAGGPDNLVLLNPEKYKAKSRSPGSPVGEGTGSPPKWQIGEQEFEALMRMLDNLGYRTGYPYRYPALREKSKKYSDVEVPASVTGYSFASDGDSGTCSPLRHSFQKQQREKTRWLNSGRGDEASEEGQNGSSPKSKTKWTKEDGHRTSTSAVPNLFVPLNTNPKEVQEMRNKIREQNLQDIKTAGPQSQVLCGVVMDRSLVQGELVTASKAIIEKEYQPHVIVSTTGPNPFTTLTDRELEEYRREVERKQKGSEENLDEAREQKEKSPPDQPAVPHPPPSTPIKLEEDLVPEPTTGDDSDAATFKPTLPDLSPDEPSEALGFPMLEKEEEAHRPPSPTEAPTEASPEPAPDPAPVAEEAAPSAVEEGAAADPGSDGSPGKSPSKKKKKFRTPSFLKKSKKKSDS
UniProt P34949: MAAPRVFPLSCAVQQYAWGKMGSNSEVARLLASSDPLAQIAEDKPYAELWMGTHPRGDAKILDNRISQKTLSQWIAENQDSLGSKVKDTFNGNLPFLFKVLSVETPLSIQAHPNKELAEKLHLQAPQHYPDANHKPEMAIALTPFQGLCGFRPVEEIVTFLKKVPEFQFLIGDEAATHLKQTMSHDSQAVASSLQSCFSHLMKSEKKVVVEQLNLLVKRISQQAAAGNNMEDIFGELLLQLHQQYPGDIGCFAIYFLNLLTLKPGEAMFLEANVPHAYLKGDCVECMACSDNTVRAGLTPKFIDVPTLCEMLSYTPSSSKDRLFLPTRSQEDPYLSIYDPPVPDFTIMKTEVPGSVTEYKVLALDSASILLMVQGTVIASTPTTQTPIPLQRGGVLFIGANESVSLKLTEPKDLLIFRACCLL
UniProt P42771, whole entry: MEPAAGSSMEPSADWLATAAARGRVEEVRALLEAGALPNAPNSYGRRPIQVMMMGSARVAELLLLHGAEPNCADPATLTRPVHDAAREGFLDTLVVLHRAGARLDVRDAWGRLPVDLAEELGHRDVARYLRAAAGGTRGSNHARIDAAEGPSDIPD

Compound in the test: COC(=O)/C=C/c1ccccc1 [methyl cinnamate]
Kind of test: log2 ratio of iodoacetamide-alkyne labeling of the cysteine site, DMSO over compound (competition); higher = stronger covalent engagement of the cysteine by the compound, active = 1 or more. To be noted: 500 µM; treatment time 1 h; system: HEK293T cell lysate. The method, boiled down: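 For each cysteine, the log2 competition ratio is mean control-channel reporter intensity over mean compound-channel reporter intensity. HEK293T lysate (2 mg/mL) was exposed to vehicle or electrophile (500 µM, 1 h, ambient temperature), labelled with iodoacetamide alkyne (1 h), clicked to sCIP-TMT reagents, digested overnight with trypsin at 37 °C, streptavidin-enriched and analysed by Orbitrap Eclipse LC-MS/MS with FAIMS and FragPipe. Cysteines quantified in only one of three replicates, each with duplicate channels, were excluded.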
IARS C87 (UniProt P41252): the “log2 ratio of iodoacetamide-alkyne labeling” value (shortened to “log2 ratio”) was inactive: 0.00411.

For NCAPD3 C1456 (UniProt P42695), the “log2 ratio” value is inactive: 0.377.

Take WEE1 C251 (UniProt P30291): the “log2 ratio” value was inactive: 0.194.

Regarding LONP1 C682 (UniProt P36776), the “log2 ratio” value was inactive: 0.222.

Turning to ATIC C241 (UniProt P31939), the “log2 ratio” value was inactive: 0.176.

For STAT1 C174 (UniProt P42224), the “log2 ratio” value is inactive: 0.0285.

In the case of MDH2 C128 (UniProt P40926), the “log2 ratio” value is inactive: -0.116.

Take LRPPRC C484 (UniProt P42704): the “log2 ratio” value is inactive: 0.00399.

Take TTK C284 (UniProt P33981): the “log2 ratio” value is inactive: 0.389.

As to P41778 C172 (UniProt P40424), the “log2 ratio” value was inactive: -0.389.

On to BSG C242 (UniProt P35613), for which the “log2 ratio” value is inactive: 0.159.

UniProt P42126_C114: the “log2 ratio” value was inactive: -0.0724.

For the target POLR2B C945 (UniProt P30876), the “log2 ratio” value was inactive: 0.172.

As to RPL9 C134 (UniProt P32969), the “log2 ratio” value is inactive: -0.0347.

In the case of PPP2R1B C306 (UniProt P30154), the “log2 ratio” value was inactive: 0.0917.

On to CPOX C198 (UniProt P36551), for which the “log2 ratio” value was inactive: 0.225.

As for MCM5 C219 (UniProt P33992), the “log2 ratio” value is inactive: 0.22.

With UniProt P41214_C271, the “log2 ratio” value is inactive: 0.0502.

Turning to STIP1 C26 (UniProt P31948), the “log2 ratio” value is inactive: 0.174.

For the target MAT2A C214 (UniProt P31153), the “log2 ratio” value was inactive: 0.0246.

Take ADD1 C430 (UniProt P35611): the “log2 ratio” value was inactive: 0.236.

RRM2 C202 (UniProt P31350): the “log2 ratio” value was inactive: 0.135.

MYH9 C91 (UniProt P35579): the “log2 ratio” value was inactive: -0.221.

As for PSMC2 C377 (UniProt P35998), the “log2 ratio” value is inactive: 0.0647.

As to HSPA4 C376 (UniProt P34932), the “log2 ratio” value was inactive: -0.102.

With ADD1 C68 (UniProt P35611), the “log2 ratio” value is inactive: 0.0601.

Take PPP2R1A C154 (UniProt P30153): the “log2 ratio” value was inactive: 0.153.

As to ATP6V1A C138 (UniProt P38606), the “log2 ratio” value is inactive: 0.175.

In the case of ATIC C325 (UniProt P31939), the “log2 ratio” value was inactive: -0.0613.

With TMPO C363 (UniProt P42167), the “log2 ratio” value is inactive: 0.187.

As for POLR2B C1137 (UniProt P30876), the “log2 ratio” value was inactive: -0.0143.

On to MPI C309 (UniProt P34949), for which the “log2 ratio” value is inactive: 0.0873.

Regarding MCM5 C221 (UniProt P33992), the “log2 ratio” value was inactive: 0.212.

As for HMGCL C323 (UniProt P35914), the “log2 ratio” value was inactive: 0.257.

As to UniProt P42771_C72, the “log2 ratio” value was inactive: 0.318.

As for HADHA C747 (UniProt P40939), the “log2 ratio” value was inactive: 0.323.

As for STAT3 C259 (UniProt P40763), the “log2 ratio” value is inactive: -0.144.

(Values after the supplement of paper PMC11006884.)
